These are yes or no findings as the source states them, for the method shown. In cells and extracts the contact can be indirect. Binding can be weak; no strength is given.
Molecular target: T1, β1,4-galactosyltransferase B4GalT-I (UniProt P15291)
T1 sequence: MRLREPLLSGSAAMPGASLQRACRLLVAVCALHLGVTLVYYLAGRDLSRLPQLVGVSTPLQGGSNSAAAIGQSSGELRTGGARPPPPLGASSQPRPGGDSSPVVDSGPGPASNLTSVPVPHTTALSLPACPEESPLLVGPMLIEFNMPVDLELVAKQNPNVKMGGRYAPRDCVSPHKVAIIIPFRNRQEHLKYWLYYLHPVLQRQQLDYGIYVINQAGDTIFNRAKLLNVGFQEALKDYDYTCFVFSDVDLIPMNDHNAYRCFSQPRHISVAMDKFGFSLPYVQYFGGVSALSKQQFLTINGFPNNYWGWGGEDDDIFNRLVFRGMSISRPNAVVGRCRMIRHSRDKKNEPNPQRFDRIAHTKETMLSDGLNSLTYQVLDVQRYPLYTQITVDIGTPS
Test: FRET or BRET; mVenus- and mCherry-tagged enzyme constructs co-transfected in COS-7 cells, fixed with 4% PFA, FRET quantified by high content imaging (Operetta); normoxic cells as the reference (100%); cells also compared after moderate hypoxia (5% O2, 4-24 h) or 3-10 mM DTT; mutants given as percent of wild type

By UniProt entry, the sequences of proteins in these tests, tags left out. Where a name states a change or a piece, a line headed by the entry shows the natural chain unless it says otherwise.
UniProt P15907: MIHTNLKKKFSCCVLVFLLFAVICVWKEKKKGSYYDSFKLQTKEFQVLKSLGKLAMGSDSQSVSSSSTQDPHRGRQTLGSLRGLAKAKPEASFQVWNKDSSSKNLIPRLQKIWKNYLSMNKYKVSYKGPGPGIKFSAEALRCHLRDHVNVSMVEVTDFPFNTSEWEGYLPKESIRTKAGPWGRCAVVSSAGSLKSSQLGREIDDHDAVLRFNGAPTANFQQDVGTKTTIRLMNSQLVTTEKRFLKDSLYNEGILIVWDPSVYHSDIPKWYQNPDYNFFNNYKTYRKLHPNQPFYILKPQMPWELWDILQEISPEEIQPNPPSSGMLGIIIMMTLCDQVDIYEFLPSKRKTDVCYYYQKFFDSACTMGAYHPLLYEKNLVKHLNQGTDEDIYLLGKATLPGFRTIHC

## ST6Gal-I cysteine mutant C24S (from UniProt P15907) (enzyme)
  binding: binds

— article PMC6454061
